# In all, about 330,000 compounds went through this assay and about 7,700 (2.3%) were called active. Inconclusive means that the source gave no clear call. Such entries were picked first, then a sample of the others. Calls follow the shape of the dose curve; as a rule, active = well fitted inhibition curve with a large enough effect; inconclusive = small, poorly fitted or top-dose-only effect, or effect the other way; inactive = flat fitted curve, though single readings scatter. Where the call is inconclusive, the potency comes from a doubtful curve fit.
# Experiment: qHTS screen for small molecules that inhibit ELG1-dependent DNA repair in human embryonic kidney (HEK293T) cells expressing luciferase-tagged ELG1; also: nearly all actives have a fitted effect of over 55% in size
# Conditions: HEK293T ELG1-luciferase reporter, luminescence, 16 h, DNA damage induced by 5-fluorouridine; series mostly up to 46.1 µM
# Summary of the method: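 Reporter activity after DNA damage by 5-fluorouridine is monitored. Compound-treated cells incubate 16 hr at 37 °C, then ONE-Glo is added for 30 min before luminescence reading.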
# Potency is read from the fitted curve at half-maximal effect.
row,Compound,Potency
1,O=C(/C=C/c1cccc(F)c1)Nc1nccs1,"inconclusive: 8.2 µM [activator, partial curve]"
2,CCc1ccc(-c2nn[nH]n2)cc1,"inconclusive: 29.1 µM [activator, single point]"
3,CCc1cc(C(N)=O)c(NC(=O)c2ccc(OC)cc2)s1,"inconclusive: 16.4 µM [activator, partial curve]"
4,Cc1c(-n2cc(C(=O)c3cc(Br)ccc3O)cc(C#N)c2=O)c(=O)n(-c2ccccc2)n1C,"inconclusive: 20.6 µM [inhibitor, single point]"
5,COc1ccc(CCNC(=O)c2ccc(Cl)c(S(=O)(=O)N3CCCCCC3)c2)cc1,"inconclusive: 23.1 µM [inhibitor, single point]"
6,C=CCn1c(-c2cccnc2Cl)nc2cc(Cl)c(Cl)cc21,"inconclusive: 5.17 µM [activator, partial curve, poor fit]"
7,COC(=O)[C@@]1(Cc2ccc(F)cc2)[C@H]2c3cc(C(=O)N(C)C)n(Cc4ccccn4)c3C[C@H]2CN1C(=O)c1ccccc1,"inconclusive: 4.61 µM [inhibitor, partial curve, poor fit]"
8,O=C(NCCCNC(=O)c1ccc(-c2cccc(Cl)c2)o1)c1cnccn1,"inconclusive: 29.1 µM [inhibitor, single point]"
9,CC(=O)c1cccc(NC(=S)NC(=O)c2ccc(C)cc2)c1,"inconclusive: 7.3 µM [activator, partial curve]"
10,Cc1ccc2c(COC(=O)CNC(=O)c3ccccc3)cc(=O)oc2c1,"inconclusive: 29.1 µM [activator, single point]"
11,COc1ccc(CNC(=O)CSc2ccsc2[N+](=O)[O-])cc1,"inconclusive: 16.4 µM [activator, partial curve]"
12,CCOc1ncccc1C(=O)OCC(=O)c1ccc(Cl)s1,"inconclusive: 20.6 µM [inhibitor, single point]"
13,Cc1ccc(NC(=S)N(Cc2ccc(Br)cc2)Cc2ccc(C(=O)O)cc2)cc1C,inactive
14,Cc1ccc(C)c(S(=O)(=O)N2CCN(C(=O)CCNS(=O)(=O)c3ccccc3)CC2)c1,"inconclusive: 20.6 µM [inhibitor, partial curve]"
15,O=C(NCCNc1ccc([N+](=O)[O-])cc1C(F)(F)F)c1ccccc1F,inactive
16,CN(Cc1ccccc1)C(=O)c1cccc(N2C(=O)C3CC=CCC3C2=O)c1 (stereo unspecified),inactive
17,CCOC(=O)N1CCC(NC(=O)c2cc(COc3ccc(F)cc3Cl)on2)CC1,inactive
18,CCCn1c(SCC(=O)N2CCCCC2)nnc1C(C)C,"inconclusive: 13 µM [activator, partial curve]"
19,O=C(c1cc(COc2ccc(F)cc2F)on1)N1CCOCC1,"inconclusive: 18.3 µM [activator, partial curve]"
20,O=C(Oc1ccnc2cc(Cl)ccc12)N1CCCCCC1,"inconclusive: 20.6 µM [inhibitor, partial curve, poor fit]"
21,O=S(=O)(c1ccc(SCCOc2cccc(Br)c2)nc1)N1CCCC1,inactive
22,CCOC(=O)C1=CN(CC)S(=O)(=O)NC1CCc1ccccc1 (stereo unspecified),"inconclusive: 18.3 µM [inhibitor, single point]"

row,Compound,Potency
1,CCc1cc(-c2n[nH]c(C)c2-c2nc3ccccc3n2C)c(O)c(CN2CCN(C)CC2)c1O,"inconclusive: 29.1 µM [inhibitor, single point]"
2,COc1cccc(N(C(=O)CNC(=O)c2ccco2)C(C(=O)NC2CCCC2)c2cccnc2)c1 (stereo unspecified),inactive
3,CCOc1ccccc1NC(=O)c1cc(C(=O)c2cc(OC)ccc2O)coc1=N,"inconclusive: 23.1 µM [inhibitor, partial curve]"
4,COc1ccccc1Nc1ncc(C(=O)Nc2ccc(OC)c(OC)c2)c2ccccc12,"inconclusive: 16.4 µM [inhibitor, partial curve]"
5,O=C(COc1ccc(S(=O)(=O)NC2CCCCC2)cc1)NC1CC1,"inconclusive: 0.231 µM [inhibitor, partial curve, poor fit]"
6,Cn1c(SCC(=O)Nc2ccc(NC(=O)c3cccc(F)c3)cc2)nnc1-c1ccncc1,"inconclusive: 32.6 µM [activator, single point]"
7,N=C(N)SCc1ccccn1,"inconclusive: 29.1 µM [inhibitor, single point]"
8,Cc1ccccc1C(=O)Oc1ccc(Br)cc1C(=S)N1CCCC1,inactive
9,COc1ccc(/C=N/NC(=O)c2ccc(CSc3nc(C)cc(C)n3)cc2)c(OC)c1OC,"inconclusive: 29.1 µM [inhibitor, single point]"
10,COC(=O)/C=C/CSC1=N/C(=C/c2ccc(-n3cncn3)cc2)C(=O)N1,"inconclusive: 22.4 µM [inhibitor, single point]"
11,O=C(Nc1ccc(CN2CCCCC2)cc1)Nc1ccccc1Cl,"inconclusive: 29.1 µM [activator, single point]"
12,Clc1ccc(Nc2ncnc3c2cnn3-c2ccccc2)cc1,"inconclusive: 5.8 µM [activator, partial curve]"
13,CN1/C(=C/c2cc[n+](C)c3ccccc23)C=Cc2ccccc21,active: 1.3 µM
14,CCOc1ccccc1N(CC(=O)Nc1ccccc1C(=O)N1CCOCC1)S(C)(=O)=O,"inconclusive: 20.6 µM [activator, partial curve, poor fit]"
15,Cc1ccc2cc(CN(CC(C)C)S(=O)(=O)c3ccccc3)c(=O)[nH]c2c1,"inconclusive: 8.2 µM [inhibitor, partial curve]"
16,COc1ccc(N2C(=O)N[C@@H](Cc3ccccc3)C2=O)cc1OC,"inconclusive: 5.8 µM [activator, full curve]"
17,COc1ccccc1NC(=O)c1cc2c(CO)cnc(C)c2oc1=Nc1ccc(OC)c(OC)c1,active: 2.91 µM
18,Oc1cc(Cc2ccccc2)cnc1CN1CCCCC1,inactive
19,O=C(CSc1nnc(NC(=O)c2ccccc2F)s1)NCc1ccco1,"inconclusive: 18.3 µM [activator, partial curve]"
20,CCOc1cccc(-c2nn(-c3ccccc3)cc2/C=C(/C#N)C(=O)NCCCn2ccnc2)c1,"inconclusive: 23.1 µM [inhibitor, single point]"
21,C#CCOCCOCCOCCNc1nc(N2CCN(C(=O)[C@H](CCCCN)n3cc(CN)nn3)CC2)nc(N2CCN(C(=O)[C@H](CO)n3cc([C@@H](N)C(C)C)nn3)CC2)n1,"inconclusive: 18.3 µM [activator, partial curve, poor fit]"
22,CCC1=NNC(=O)C(CC(=O)Nc2ccccc2)c2cc(OC)c(OC)cc21 (stereo unspecified),"inconclusive: 32.6 µM [inhibitor, partial curve, poor fit]"

row,Compound,Potency
1,O=C(Nc1ccccc1N1CCOCC1)c1cc(-c2ccco2)nc2ccccc12,active: 5.17 µM
2,Cc1ccc(S(=O)(=O)N2CCC(=O)N(CCOC(=O)Nc3cccc(Cl)c3)CC2)cc1,inactive
3,COc1ccccc1N1CCN(C(=O)c2sc3nc(C)nc(N4CCN(c5ccccn5)CC4)c3c2C)CC1,"inconclusive: 13 µM [inhibitor, partial curve]"
4,Nc1nc(CSc2nc3ccccc3[nH]2)cs1,"inconclusive: 15.8 µM [activator, partial curve, poor fit]"
5,O=C(/C=C/c1ccccc1Cl)N1CCOCC1,"inconclusive: 29.1 µM [activator, single point]"
6,O=C1C=C(c2ccc(F)nc2)C[C@@H](c2ccc3c(c2)OCO3)C1,inactive
7,C(=N\N1CCN(c2ccccn2)CC1)/c1ccccn1,"inconclusive: 20.6 µM [activator, partial curve]"
8,CNC(=O)c1[nH]cnc1C(=O)Nc1ccc(OC)cc1,"inconclusive: 16.4 µM [activator, partial curve]"
9,CNc1ncc(C(=O)c2ccc(Br)cc2)s1,"inconclusive: 9.2 µM [activator, partial curve]"
10,CCOC(=O)c1c(NC(=O)C2=COCCO2)sc2c1CCN(C(=O)OC)C2,"inconclusive: 17.8 µM [inhibitor, single point]"
11,CCCSc1nnc(NC(=O)Nc2ccccc2)s1,"inconclusive: 3.26 µM [activator, single point]"
12,CCN(CC)C(=O)[C@H]1C[C@H](CC(=O)NCC23CC4CC(CC(C4)C2)C3)C(=O)N2CCc3c([nH]c4ccc(Cl)cc34)[C@]12C,"inconclusive: 20.6 µM [inhibitor, single point]"
13,Cc1ccc2cc(CN(CCN(C)C)C(=S)Nc3ccccc3)c(=O)[nH]c2c1C,active: 9.2 µM
14,COc1ccccc1OCc1ccc(C(=O)Nc2cc(OC)c(OC)c(OC)c2)o1,"inconclusive: 12.6 µM [inhibitor, partial curve, poor fit]"
15,CC1(C)Cc2c(sc(NC(=O)C(=O)N3CCCC3)c2C(N)=O)CO1,inactive
16,CC(C)C(NC(=O)c1ccc(Br)cc1)C(=O)NC1=NCCS1 (stereo unspecified),"inconclusive: 11.6 µM [inhibitor, partial curve, poor fit]"
17,O=C(CNC(=O)c1cccc(Cl)c1)NCCCSc1ccccc1,inactive
18,Cc1ccc(C)c(OCCn2nnc3ccccc32)c1,"inconclusive: 14.6 µM [activator, partial curve]"
19,CCOC(=O)c1[nH]c(C)c(C(=O)OCC(=O)NCc2ccc(OC)cc2)c1C,"inconclusive: 10 µM [inhibitor, partial curve]"
20,CCCCN(C(=O)COC(=O)c1ccc(C=O)cc1)c1c(N)n(CCC)c(=O)[nH]c1=O,inactive
21,COc1ccccc1NC(=S)NCCC(c1ccccc1)c1ccccc1,inactive
22,CC(C)(C)C(=O)Nc1ccc(C(=O)N/N=C/c2ccccc2OC(=O)c2ccccc2)cc1,"inconclusive: 25.9 µM [inhibitor, single point]"

# Random excerpt: 3 compounds from above, in no set order.
row,Compound,Potency
10,CCOC(=O)c1c(NC(=O)C2=COCCO2)sc2c1CCN(C(=O)OC)C2,"inconclusive: 17.8 µM [inhibitor, single point]"
20,CCCCN(C(=O)COC(=O)c1ccc(C=O)cc1)c1c(N)n(CCC)c(=O)[nH]c1=O,inactive
17,O=C(CNC(=O)c1cccc(Cl)c1)NCCCSc1ccccc1,inactive
